According to patent US20260151620A1, “IMPLANT MEDICAL DEVICES” (Case Western Reserve University, priority 2021, published 2026):

Assay: In vitro drug release from drug-loaded titania nanotube arrays (TNAs) in PBS at 37° C.
Assay type: physicochemical
Procedure: A total of 500 μL of DEX solution was pipetted onto the nanotube surface (pipetting 100 μL for 5 times) and allowed to dry in fume hood for an hour, ensuring that the nanotube array surface was completely dry prior to each pipetting and the release studies. Then, DEX-loaded TNA samples were immersed in Eppendorf tubes containing 100 μL of PBS (1× phosphate buffered saline) and were placed in a water bath kept at 37° C. For release measurements, all 100 μL from each releasing sample tube was transferred to a 96-well plate and measured using a SpectraMax M 2 Microplate Reader. The absorption of DEX was measured at 244 nm. After each measurement, the releasing medium was fully replaced with […] of fresh PBS.

- duration of linear release (TNAs on polyimide and foil substrates, PBS): several weeks
- duration of linear release (~0.5 μm-deep, 100 nm-diameter TNAs on polyimide): at least 7 weeks
SMILES: C[C@@H]1C[C@H]2[C@@H]3CCC4=CC(=O)C=C[C@]4(C)[C@@]3(F)[C@@H](O)C[C@]2(C)[C@@]1(O)C(=O)COP(=O)(O)O [Dexamethasone, dexamethasone sodium phosphate]
